Data from paper PMC3094399.
No constants are given. Whether binding was seen depends on the method and setting. Binding seen in cells or lysates may run through a third protein. Some binding calls cover weakened binding; strength is not graded here. Where a sequence is shown, tags or fusion partners need not be part of it.

Protein sequences, listed by entry. Tags and fused reporters are not part of them. Residues count along the entry.
UniProt Q5HYA8, residues 37-995: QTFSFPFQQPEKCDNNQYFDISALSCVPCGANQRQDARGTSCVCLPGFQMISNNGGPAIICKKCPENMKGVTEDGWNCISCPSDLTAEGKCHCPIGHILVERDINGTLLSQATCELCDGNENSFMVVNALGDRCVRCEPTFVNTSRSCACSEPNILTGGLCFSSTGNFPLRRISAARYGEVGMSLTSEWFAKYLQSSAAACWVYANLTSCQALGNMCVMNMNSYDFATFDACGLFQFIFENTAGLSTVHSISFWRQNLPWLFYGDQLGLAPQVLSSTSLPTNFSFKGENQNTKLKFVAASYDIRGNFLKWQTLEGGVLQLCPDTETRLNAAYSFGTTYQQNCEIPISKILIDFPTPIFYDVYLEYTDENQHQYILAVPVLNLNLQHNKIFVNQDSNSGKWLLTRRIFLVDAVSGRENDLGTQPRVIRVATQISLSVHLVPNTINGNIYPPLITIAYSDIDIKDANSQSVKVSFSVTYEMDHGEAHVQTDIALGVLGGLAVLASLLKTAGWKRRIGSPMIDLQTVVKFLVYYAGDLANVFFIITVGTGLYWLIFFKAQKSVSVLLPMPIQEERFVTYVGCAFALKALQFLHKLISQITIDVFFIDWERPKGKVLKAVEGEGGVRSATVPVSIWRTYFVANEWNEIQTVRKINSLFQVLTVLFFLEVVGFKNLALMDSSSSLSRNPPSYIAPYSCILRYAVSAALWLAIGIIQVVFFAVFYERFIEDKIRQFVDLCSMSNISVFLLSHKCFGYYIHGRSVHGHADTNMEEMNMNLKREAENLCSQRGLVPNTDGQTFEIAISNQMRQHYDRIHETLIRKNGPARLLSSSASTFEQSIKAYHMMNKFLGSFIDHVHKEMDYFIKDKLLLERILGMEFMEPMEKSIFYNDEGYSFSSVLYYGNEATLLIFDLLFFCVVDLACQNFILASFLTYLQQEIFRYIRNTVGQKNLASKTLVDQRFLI

T1: MOR18-2, N-terminal Flag tag (mouse) (UniProt Q8VBV9)
T1 sequence: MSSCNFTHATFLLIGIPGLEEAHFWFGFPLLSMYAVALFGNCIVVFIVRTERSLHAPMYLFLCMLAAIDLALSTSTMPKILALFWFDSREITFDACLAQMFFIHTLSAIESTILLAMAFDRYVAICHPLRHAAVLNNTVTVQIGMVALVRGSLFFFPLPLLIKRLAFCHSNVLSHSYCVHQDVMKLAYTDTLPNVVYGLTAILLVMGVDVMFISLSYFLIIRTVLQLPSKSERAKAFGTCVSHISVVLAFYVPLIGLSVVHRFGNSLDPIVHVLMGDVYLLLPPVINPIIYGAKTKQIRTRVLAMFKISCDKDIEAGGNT


Molecular target: T1, MOR18-2, N-terminal Flag tag (mouse)
Experiment: co-IP; COS cells co-transfected with Flag-tagged OR constructs and MKS3 or HA-tagged MKS1; immunoprecipitation with a Flag antibody, blot for MKS3 or for HA (MKS1)

Molecule | binding
Meckel-Gruber syndrome 3 (MKS3; meckelin), full-length human (from UniProt Q5HYA8 37-995) | binds
Meckel-Gruber syndrome 1 (MKS1), HA-tagged (protein, UniProt Q9NXB0 1-559) MAETVWSTDTGEAVYRSRDPVRNLRLRVHLQRITSSNFLHYQPAAELGKDLIDLATFRPQPTASGHRPEEDEEEEIVIGWQEKLFSQFEVDLYQNETACQSPLDYQYRQEILKLENSGGKKNRRIFTYTDSDRYTNLEEHCQRMTTAASEVPSFLVERMANVRRRRQDRRGMEGGILKSRIVTWEPSEEFVRNNHVINTPLQTMHIMADLGPYKKLGYKKYEHVLCTLKVDSNGVITVKPDFTGLKGPYRIETEGEKQELWKYTIDNVSPHAQPEEEERERRVFKDLYGRHKEYLSSLVGTDFEMTVPGALRLFVNGEVVSAQGYEYDNLYVHFFVELPTAHWSSPAFQQLSGVTQTCTTKSLAMDKVAHFSYPFTFEAFFLHEDESSDALPEWPVLYCEVLSLDFWQRYRVEGYGAVVLPATPGSHTLTVSTWRPVELGTVAELRRFFIGGSLELEDLSYVRIPGSFKGERLSRFGLRTETTGTVTFRLHCLQQSRAFMESSSLQKRMRSVLDRLEGFSQQSSIHNVLEAFRRARRRMQEARESLPQDLVSPSGTLVS | binds
